{
  "source": "paper doi:10.1101/2022.04.06.487334",
  "biological_target": "Ammonia monooxygenase subunit AmoA of Nitrososphaera viennensis (Nitrososphaera viennensis (endogenous in N. viennensis biomass))",
  "experiment": "cross-linking",
  "note": "Results are given in words; binding and its absence hold for the method and conditions named. In cells and extracts the contact can be indirect. Binding can be weak; no strength is given.",
  "data": [
    {"substance": "Putative ammonia monooxygenase subunit AmoX of Nitrososphaera viennensis (from UniProt A0A060HKG4)", "values": [
      {"measurement": "binding", "result": "binds"}
    ]}
  ]
}
